This passage reports binding results from article PMC10934892.

The chains behind the UniProt entries cited, without tags or fusion partners. Residues count along the entry.
UniProt P11021, residues 19-654: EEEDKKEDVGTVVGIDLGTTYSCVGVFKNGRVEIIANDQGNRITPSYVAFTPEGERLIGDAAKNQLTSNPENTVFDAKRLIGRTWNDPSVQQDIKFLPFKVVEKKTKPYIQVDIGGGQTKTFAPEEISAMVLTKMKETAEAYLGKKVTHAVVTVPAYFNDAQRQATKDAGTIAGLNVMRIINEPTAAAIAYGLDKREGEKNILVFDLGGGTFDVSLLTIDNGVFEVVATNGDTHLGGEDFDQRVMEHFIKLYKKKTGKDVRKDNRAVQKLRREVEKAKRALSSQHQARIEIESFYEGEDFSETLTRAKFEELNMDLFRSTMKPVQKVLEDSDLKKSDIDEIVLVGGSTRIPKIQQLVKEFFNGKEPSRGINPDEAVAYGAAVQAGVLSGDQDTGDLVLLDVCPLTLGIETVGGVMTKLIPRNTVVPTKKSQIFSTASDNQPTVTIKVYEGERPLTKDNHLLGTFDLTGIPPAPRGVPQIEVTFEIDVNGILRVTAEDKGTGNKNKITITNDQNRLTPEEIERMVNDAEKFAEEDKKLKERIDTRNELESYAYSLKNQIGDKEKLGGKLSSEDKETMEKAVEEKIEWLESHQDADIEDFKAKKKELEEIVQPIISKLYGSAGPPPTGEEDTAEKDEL

In assay [1] the target is T1, Flag-tagged overexpressed RRS1 (UniProt Q15050).
T1 sequence: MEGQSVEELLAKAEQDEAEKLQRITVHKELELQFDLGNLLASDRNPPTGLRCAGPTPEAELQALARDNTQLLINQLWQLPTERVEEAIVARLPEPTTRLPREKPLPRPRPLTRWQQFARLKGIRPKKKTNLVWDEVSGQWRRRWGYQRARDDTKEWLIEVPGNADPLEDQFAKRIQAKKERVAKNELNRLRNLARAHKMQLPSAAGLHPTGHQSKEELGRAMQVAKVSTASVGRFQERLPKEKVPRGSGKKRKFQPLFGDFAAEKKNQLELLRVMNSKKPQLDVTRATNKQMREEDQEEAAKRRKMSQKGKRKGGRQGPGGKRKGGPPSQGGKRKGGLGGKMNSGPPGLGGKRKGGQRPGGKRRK
Kind of assay: co-IP; IP with anti-Flag antibodies from BC cells (BT-549, MDA-MB-231) infected with lentivirus for Flag-tagged RRS1; Western blot for GRP78.

Assay [2] deals with Glucose-Regulated Protein 78 (GRP78) (human (endogenous in BT-549 and MDA-MB-231)) (UniProt P11021). Nature of the assay: co-IP; IP of cell lysates (BT-549, MDA-MB-231) with anti-GRP78 antibody and protein A/G beads overnight, IgG as control; Western blot for RRS1.

No constants are given. Whether binding was seen depends on the method and setting. Binding seen in cells or lysates may run through a third protein. Some entries that bind do so weakly or less than the wild type. For some assays here: Sequences can lack the tags named with a protein.

For “Glucose-Regulated Protein 78 (GRP78) (from UniProt P11021 19-654)”, the binding entry in assay [1] is “binds”.

B1: Regulator of ribosome synthesis 1 (RRS1) (protein, UniProt Q15050 1-365)
chain: T1 sequence
Consider B1, for which the binding entry in assay [2] is given as “binds”.
